Results reported in the supplement of paper PMC7666118.
Some of the results follow.

Amino acid sequences for entries named in this document (tags omitted). A change or cut given only in a name is not applied to a line headed by its entry.
UniProt P25685, whole entry: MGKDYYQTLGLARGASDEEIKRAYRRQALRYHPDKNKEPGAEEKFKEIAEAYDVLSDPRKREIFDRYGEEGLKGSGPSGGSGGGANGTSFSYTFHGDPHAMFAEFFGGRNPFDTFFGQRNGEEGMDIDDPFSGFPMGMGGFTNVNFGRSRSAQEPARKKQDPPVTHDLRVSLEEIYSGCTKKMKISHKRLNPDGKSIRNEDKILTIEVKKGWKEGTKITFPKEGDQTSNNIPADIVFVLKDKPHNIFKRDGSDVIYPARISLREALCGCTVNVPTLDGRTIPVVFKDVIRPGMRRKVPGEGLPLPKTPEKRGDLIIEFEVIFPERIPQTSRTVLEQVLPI
UniProt Q7RTS9: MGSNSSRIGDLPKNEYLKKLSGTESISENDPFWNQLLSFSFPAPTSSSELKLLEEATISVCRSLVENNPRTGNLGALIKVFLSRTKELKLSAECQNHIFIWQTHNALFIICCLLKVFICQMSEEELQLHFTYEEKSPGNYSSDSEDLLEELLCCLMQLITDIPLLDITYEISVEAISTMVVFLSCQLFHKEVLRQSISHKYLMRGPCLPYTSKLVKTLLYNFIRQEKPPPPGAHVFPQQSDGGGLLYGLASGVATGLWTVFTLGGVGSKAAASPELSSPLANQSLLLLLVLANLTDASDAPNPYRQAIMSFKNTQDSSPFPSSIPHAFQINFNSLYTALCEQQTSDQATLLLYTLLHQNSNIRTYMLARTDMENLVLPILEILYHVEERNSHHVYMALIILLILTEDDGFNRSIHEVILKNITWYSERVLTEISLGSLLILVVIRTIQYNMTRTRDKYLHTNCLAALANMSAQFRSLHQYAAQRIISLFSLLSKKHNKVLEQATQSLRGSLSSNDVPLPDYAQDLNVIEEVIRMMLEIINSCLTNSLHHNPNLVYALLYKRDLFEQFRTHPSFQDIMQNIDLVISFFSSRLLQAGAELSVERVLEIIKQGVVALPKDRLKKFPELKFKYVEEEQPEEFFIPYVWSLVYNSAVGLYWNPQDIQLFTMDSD
UniProt O75165, whole entry: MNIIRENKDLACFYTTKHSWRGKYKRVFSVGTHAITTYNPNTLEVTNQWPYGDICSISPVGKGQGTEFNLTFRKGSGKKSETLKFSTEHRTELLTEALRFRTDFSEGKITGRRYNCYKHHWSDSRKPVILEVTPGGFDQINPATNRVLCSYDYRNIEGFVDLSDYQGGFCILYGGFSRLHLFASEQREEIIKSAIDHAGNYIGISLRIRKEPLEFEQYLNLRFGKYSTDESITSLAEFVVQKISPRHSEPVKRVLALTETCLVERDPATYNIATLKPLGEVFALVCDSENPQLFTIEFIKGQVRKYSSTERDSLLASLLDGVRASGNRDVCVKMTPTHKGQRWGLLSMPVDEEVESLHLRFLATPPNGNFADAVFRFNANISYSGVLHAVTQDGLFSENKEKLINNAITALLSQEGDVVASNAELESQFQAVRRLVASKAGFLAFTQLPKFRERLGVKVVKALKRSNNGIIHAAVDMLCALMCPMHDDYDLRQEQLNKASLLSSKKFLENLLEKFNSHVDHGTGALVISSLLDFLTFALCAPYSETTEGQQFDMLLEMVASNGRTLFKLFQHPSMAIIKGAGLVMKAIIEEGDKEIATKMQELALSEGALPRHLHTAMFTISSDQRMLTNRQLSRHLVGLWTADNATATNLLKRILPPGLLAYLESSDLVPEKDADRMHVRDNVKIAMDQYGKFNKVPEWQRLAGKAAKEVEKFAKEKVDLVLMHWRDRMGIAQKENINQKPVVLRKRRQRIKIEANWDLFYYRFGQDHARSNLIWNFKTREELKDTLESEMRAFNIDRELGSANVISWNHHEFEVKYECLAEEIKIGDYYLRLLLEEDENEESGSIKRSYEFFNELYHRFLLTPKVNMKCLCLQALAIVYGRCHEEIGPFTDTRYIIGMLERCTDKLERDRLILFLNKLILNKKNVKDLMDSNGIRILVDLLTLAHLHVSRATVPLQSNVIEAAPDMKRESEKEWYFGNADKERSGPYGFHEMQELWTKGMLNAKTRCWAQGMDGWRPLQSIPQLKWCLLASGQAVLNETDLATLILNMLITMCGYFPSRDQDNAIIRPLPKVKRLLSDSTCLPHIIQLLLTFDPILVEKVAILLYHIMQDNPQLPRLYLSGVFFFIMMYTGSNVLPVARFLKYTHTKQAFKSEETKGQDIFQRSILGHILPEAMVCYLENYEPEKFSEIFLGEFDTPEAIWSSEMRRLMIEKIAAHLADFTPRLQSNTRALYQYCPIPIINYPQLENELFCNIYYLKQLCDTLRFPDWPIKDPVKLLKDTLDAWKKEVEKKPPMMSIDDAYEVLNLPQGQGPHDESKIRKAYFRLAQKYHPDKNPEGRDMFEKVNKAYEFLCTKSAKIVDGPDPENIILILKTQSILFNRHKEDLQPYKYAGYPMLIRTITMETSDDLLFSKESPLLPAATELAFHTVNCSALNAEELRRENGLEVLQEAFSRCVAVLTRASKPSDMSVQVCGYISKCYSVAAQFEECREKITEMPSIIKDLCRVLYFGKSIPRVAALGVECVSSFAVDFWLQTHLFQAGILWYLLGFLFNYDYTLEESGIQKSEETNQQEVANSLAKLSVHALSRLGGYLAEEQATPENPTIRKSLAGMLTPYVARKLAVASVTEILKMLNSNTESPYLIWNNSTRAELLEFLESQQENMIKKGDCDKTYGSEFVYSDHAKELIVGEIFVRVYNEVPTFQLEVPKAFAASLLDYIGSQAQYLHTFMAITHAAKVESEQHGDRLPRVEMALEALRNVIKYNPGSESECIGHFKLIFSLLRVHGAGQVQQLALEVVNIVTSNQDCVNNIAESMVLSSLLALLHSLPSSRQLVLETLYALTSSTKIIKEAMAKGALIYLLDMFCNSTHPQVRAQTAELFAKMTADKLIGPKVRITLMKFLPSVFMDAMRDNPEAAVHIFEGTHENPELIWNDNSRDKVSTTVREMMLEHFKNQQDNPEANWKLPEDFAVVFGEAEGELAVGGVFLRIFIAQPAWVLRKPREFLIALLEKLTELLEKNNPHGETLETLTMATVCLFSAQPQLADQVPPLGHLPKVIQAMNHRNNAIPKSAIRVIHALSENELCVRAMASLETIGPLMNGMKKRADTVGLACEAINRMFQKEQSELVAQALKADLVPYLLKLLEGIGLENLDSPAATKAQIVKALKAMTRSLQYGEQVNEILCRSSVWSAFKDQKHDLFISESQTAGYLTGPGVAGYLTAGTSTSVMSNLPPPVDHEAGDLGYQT
UniProt O00303, whole entry: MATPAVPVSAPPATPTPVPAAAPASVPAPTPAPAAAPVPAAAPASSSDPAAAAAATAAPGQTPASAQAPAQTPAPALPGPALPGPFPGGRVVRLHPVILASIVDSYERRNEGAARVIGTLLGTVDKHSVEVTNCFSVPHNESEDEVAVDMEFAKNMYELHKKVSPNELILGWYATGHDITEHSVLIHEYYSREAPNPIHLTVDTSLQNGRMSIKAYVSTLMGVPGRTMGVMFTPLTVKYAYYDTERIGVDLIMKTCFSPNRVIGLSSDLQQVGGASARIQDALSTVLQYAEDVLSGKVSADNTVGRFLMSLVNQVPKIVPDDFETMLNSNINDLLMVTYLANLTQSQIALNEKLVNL
UniProt O75190: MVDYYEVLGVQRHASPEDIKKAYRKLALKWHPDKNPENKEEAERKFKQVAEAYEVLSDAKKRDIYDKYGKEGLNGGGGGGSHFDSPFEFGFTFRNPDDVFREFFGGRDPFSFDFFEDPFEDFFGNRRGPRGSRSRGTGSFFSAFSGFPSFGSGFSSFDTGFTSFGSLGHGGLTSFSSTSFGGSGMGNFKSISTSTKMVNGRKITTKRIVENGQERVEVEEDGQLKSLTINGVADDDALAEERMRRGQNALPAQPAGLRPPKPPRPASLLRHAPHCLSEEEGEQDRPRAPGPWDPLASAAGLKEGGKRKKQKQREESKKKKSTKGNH
UniProt Q92611: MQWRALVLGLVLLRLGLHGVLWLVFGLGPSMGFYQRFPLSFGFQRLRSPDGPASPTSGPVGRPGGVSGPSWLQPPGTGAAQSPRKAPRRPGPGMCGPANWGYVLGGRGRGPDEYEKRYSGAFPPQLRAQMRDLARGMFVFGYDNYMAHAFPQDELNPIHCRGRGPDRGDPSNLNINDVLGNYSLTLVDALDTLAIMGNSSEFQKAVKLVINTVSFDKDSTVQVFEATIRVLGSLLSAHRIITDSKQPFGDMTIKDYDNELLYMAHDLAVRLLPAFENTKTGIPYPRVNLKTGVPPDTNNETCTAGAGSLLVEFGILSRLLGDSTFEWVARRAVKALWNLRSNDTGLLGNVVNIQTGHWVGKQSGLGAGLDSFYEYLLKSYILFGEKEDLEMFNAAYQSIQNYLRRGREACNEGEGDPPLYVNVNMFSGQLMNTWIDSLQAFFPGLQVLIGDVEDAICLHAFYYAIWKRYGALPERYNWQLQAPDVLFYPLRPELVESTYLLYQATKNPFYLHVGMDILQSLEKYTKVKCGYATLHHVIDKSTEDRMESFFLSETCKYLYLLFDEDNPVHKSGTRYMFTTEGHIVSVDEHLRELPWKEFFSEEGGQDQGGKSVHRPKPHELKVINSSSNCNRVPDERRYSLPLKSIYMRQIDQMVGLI
UniProt O43237, whole entry: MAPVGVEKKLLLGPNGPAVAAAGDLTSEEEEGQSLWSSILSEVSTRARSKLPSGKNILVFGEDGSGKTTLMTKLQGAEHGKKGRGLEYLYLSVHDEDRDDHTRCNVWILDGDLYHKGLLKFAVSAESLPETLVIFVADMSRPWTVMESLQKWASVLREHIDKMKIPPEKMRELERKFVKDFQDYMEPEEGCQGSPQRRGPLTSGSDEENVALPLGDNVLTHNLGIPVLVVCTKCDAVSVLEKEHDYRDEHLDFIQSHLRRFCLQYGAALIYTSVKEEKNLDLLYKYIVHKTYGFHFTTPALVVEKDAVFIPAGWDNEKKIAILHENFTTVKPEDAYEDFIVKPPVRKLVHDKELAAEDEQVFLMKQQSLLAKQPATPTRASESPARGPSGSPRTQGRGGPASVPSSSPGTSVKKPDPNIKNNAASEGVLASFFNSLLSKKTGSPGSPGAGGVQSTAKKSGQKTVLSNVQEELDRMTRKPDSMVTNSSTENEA
UniProt O60869: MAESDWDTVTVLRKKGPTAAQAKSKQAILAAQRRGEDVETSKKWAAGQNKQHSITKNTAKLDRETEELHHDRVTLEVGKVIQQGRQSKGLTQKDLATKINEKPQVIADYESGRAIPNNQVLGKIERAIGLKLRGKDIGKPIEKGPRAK
UniProt P98172: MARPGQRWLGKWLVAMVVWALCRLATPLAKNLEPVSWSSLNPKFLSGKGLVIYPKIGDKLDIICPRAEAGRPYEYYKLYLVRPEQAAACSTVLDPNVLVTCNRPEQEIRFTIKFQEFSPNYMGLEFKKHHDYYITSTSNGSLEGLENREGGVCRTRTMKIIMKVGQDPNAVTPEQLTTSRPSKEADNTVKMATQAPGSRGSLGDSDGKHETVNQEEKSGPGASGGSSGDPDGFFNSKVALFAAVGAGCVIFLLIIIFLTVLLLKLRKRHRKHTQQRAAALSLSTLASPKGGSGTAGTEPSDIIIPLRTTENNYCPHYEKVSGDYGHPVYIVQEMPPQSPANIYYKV
UniProt Q92785, whole entry: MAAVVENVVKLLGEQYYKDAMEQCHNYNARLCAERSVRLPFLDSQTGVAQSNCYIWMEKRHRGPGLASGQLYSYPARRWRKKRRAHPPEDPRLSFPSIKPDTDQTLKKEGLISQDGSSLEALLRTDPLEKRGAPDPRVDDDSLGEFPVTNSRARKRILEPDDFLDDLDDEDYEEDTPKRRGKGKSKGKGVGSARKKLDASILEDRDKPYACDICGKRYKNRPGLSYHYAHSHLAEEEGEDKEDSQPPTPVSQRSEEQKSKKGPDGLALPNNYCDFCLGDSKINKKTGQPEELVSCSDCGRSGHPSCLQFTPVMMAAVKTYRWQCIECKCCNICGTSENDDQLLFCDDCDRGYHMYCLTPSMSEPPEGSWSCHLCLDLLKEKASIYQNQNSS
UniProt P50402: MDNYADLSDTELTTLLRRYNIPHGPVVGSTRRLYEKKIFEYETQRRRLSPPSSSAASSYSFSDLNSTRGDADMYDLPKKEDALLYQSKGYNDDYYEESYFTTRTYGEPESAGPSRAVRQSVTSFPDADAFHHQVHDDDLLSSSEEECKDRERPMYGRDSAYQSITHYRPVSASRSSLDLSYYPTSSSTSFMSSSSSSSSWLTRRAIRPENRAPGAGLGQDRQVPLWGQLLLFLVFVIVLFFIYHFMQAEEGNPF
UniProt Q9H410: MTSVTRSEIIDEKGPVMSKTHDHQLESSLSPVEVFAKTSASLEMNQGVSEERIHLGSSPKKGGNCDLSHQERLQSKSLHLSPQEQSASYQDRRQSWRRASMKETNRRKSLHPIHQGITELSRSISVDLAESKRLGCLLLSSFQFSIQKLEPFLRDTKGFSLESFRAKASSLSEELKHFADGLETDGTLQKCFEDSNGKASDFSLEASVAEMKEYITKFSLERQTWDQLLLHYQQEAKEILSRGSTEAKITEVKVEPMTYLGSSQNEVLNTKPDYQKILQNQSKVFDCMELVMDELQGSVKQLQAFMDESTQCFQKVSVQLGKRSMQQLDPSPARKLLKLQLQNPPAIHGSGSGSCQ

Compound: COc1ccc(Cn2ccc3ccc(C(=O)NO)cc32)cc1
Assay: dose-dependent thermal stabilisation call (2D-TPP, DLPTP, 10% FDR) (binary (1 = stabilised)); higher = stabilised by the compound
Conditions: system: HL-60 intact cells; concentration range 0.04-10 µM

| Target | dose-dependent thermal stabilisation call |
| --- | --- |
| DOCK5 (UniProt Q9H7D0) | inactive: 0 |
| DTYMK (UniProt P23919) | inactive: 0 |
| ERLIN1 (UniProt O75477) | inactive: 0 |
| DNAJC5 (UniProt Q9H3Z4) | inactive: 0 |
| EEA1 (UniProt Q15075) | inactive: 0 |
| DPM1 (UniProt O60762) | inactive: 0 |
| ENG (UniProt P17813) | inactive: 0 |
| EIF2B5 (UniProt Q13144) | inactive: 0 |
| EIF4G1 (UniProt Q04637) | inactive: 0 |
| EEF1B2 (UniProt P24534) | inactive: 0 |
| ENO2 (UniProt P09104) | inactive: 0 |
| DJ-1 | inactive: 0 |
| DNAJB1 (UniProt P25685) | inactive: 0 |
| EPB41 (UniProt P11171) | inactive: 0 |
| EIF2S2 (UniProt P20042) | inactive: 0 |
| EIF3G (UniProt O75821) | inactive: 0 |
| EIF4G3 (UniProt O43432) | inactive: 0 |
| DNMT1 (UniProt P26358) | inactive: 0 |
| DIDO1 (UniProt Q9BTC0) | inactive: 0 |
| DSTN (UniProt P60981) | inactive: 0 |
| EEFSEC (UniProt P57772) | inactive: 0 |
| DYM (UniProt Q7RTS9) | inactive: 0 |
| DUT (UniProt P33316) | inactive: 0 |
| DKFZP761E198 | inactive: 0 |

A second format for part of the listing above:
Target	dose-dependent thermal stabilisation call
DPM1 (UniProt O60762)	inactive: 0
EIF2B5 (UniProt Q13144)	inactive: 0

Next part:

| Target | dose-dependent thermal stabilisation call |
| --- | --- |
| EPRS (UniProt P07814) | inactive: 0 |
| DNAJC13 (UniProt O75165) | inactive: 0 |
| EIF6 (UniProt P56537) | inactive: 0 |
| EFCAB4B (UniProt Q9BSW2) | inactive: 0 |
| DUSP3 (UniProt P51452) | inactive: 0 |
| DTD1 (UniProt Q8TEA8) | inactive: 0 |
| DUS4L (UniProt O95620) | inactive: 0 |
| DYNC1LI1 (UniProt Q9Y6G9) | inactive: 0 |
| EHMT2 (UniProt Q96KQ7) | inactive: 0 |
| DIP2A (UniProt Q14689) | inactive: 0 |
| DNAJC6 (UniProt O75061) | inactive: 0 |
| EIF1B (UniProt O60739) | inactive: 0 |
| EIF3F (UniProt O00303) | inactive: 0 |
| DNAJB6 (UniProt O75190) | inactive: 0 |
| DNAL1 (UniProt Q4LDG9) | inactive: 0 |
| EDEM1 (UniProt Q92611) | inactive: 0 |
| EFHD2 (UniProt Q96C19) | inactive: 0 |
| EIF2B3 (UniProt Q9NR50) | inactive: 0 |
| EIF5B (UniProt O60841) | inactive: 0 |
| EAF1 (UniProt Q96JC9) | inactive: 0 |
| ERO1LB (UniProt Q86YB8) | inactive: 0 |
| DOHH (UniProt Q9BU89) | inactive: 0 |
| EIF2AK2 (UniProt P19525) | inactive: 0 |
| DYSFIP1 (UniProt Q86WC6) | inactive: 0 |

| Target | dose-dependent thermal stabilisation call |
| --- | --- |
| DYNC1LI2 (UniProt O43237) | inactive: 0 |
| DOK1 (UniProt Q99704) | inactive: 0 |
| ENSA (UniProt O43768) | inactive: 0 |
| EIF2A (UniProt Q9BY44) | inactive: 0 |
| EHD4 (UniProt Q9H223) | inactive: 0 |
| DPYSL2 (UniProt Q16555) | inactive: 0 |
| EIF2AK4 (UniProt Q9P2K8) | inactive: 0 |
| DYNLL1 (UniProt P63167) | inactive: 0 |
| EIF2C1 (UniProt Q9UL18) | inactive: 0 |
| EMB (UniProt Q6PCB8) | inactive: 0 |
| DYNLT1 (UniProt P63172) | inactive: 0 |
| DSG2 (UniProt Q14126) | inactive: 0 |
| EEF2 (UniProt P13639) | inactive: 0 |
| DOCK10 (UniProt Q96BY6) | inactive: 0 |
| ERCC1 (UniProt P07992) | inactive: 0 |
| EI24 (UniProt O14681) | inactive: 0 |
| ECT2 (UniProt Q9H8V3) | inactive: 0 |
| EIF4E2 (UniProt O60573) | inactive: 0 |
| EDF1 (UniProt O60869) | inactive: 0 |
| DONSON (UniProt Q9NYP3) | inactive: 0 |
| EPN1 (UniProt Q9Y6I3) | inactive: 0 |
| DTNBP1 (UniProt Q96EV8) | inactive: 0 |
| EDEM3 (UniProt Q9BZQ6) | inactive: 0 |
| EFNB1 (UniProt P98172) | inactive: 0 |

Given with bars between the fields: entries from further up
Target | dose-dependent thermal stabilisation call
DKFZP761E198 | inactive: 0
EPRS (UniProt P07814) | inactive: 0
DNAJC13 (UniProt O75165) | inactive: 0
EIF6 (UniProt P56537) | inactive: 0
EFCAB4B (UniProt Q9BSW2) | inactive: 0
DUSP3 (UniProt P51452) | inactive: 0
DTD1 (UniProt Q8TEA8) | inactive: 0
DUS4L (UniProt O95620) | inactive: 0
DYNC1LI1 (UniProt Q9Y6G9) | inactive: 0
EHMT2 (UniProt Q96KQ7) | inactive: 0
DIP2A (UniProt Q14689) | inactive: 0
DNAJC6 (UniProt O75061) | inactive: 0
EIF1B (UniProt O60739) | inactive: 0
EIF3F (UniProt O00303) | inactive: 0
DNAJB6 (UniProt O75190) | inactive: 0
DNAL1 (UniProt Q4LDG9) | inactive: 0
EDEM1 (UniProt Q92611) | inactive: 0
EFHD2 (UniProt Q96C19) | inactive: 0
EIF2B3 (UniProt Q9NR50) | inactive: 0
EIF5B (UniProt O60841) | inactive: 0
EAF1 (UniProt Q96JC9) | inactive: 0
ERO1LB (UniProt Q86YB8) | inactive: 0
DOHH (UniProt Q9BU89) | inactive: 0
EIF2AK2 (UniProt P19525) | inactive: 0
DYSFIP1 (UniProt Q86WC6) | inactive: 0
DYNC1LI2 (UniProt O43237) | inactive: 0
DOK1 (UniProt Q99704) | inactive: 0
ENSA (UniProt O43768) | inactive: 0
EIF2A (UniProt Q9BY44) | inactive: 0
EHD4 (UniProt Q9H223) | inactive: 0
DPYSL2 (UniProt Q16555) | inactive: 0
EIF2AK4 (UniProt Q9P2K8) | inactive: 0
DYNLL1 (UniProt P63167) | inactive: 0
EIF2C1 (UniProt Q9UL18) | inactive: 0
EMB (UniProt Q6PCB8) | inactive: 0
DYNLT1 (UniProt P63172) | inactive: 0
DSG2 (UniProt Q14126) | inactive: 0

Following part:

| Target | dose-dependent thermal stabilisation call |
| --- | --- |
| EIF2C2 (UniProt Q9UKV8) | inactive: 0 |
| ELAVL1 (UniProt Q15717) | inactive: 0 |
| EML4 (UniProt Q9HC35) | inactive: 0 |
| EIF4B (UniProt P23588) | inactive: 0 |
| EIF4EBP1 (UniProt Q13541) | inactive: 0 |
| DPH1 (UniProt Q9BZG8) | inactive: 0 |
| DLST (UniProt P36957) | inactive: 0 |
| EIF3E (UniProt P60228) | inactive: 0 |
| DNAJC8 (UniProt O75937) | inactive: 0 |
| ERH (UniProt P84090) | inactive: 0 |
| DYNC1I2 (UniProt Q13409) | inactive: 0 |
| ERCC6 | inactive: 0 |
| DPY19L1 (UniProt Q2PZI1) | inactive: 0 |
| EEF1G (UniProt P26641) | inactive: 0 |
| EMP3 (UniProt P54852) | inactive: 0 |
| ENDOD1 (UniProt O94919) | inactive: 0 |
| EIF2S3 (UniProt P41091) | inactive: 0 |
| ENOPH1 (UniProt Q9UHY7) | inactive: 0 |
| DPF2 (UniProt Q92785) | inactive: 0 |
| EIF5A (UniProt P63241) | inactive: 0 |
| DPP7 (UniProt Q9UHL4) | inactive: 0 |
| DOLPP1 (UniProt Q86YN1) | inactive: 0 |
| ERCC4 (UniProt Q92889) | inactive: 0 |
| EIF3K (UniProt Q9UBQ5) | inactive: 0 |

| Target | dose-dependent thermal stabilisation call |
| --- | --- |
| EPX (UniProt P11678) | inactive: 0 |
| DPY19L3 (UniProt Q6ZPD9) | inactive: 0 |
| EIF3L (UniProt Q9Y262) | inactive: 0 |
| EHBP1 (UniProt Q8NDI1) | inactive: 0 |
| ELOVL6 (UniProt Q9H5J4) | inactive: 0 |
| EMD (UniProt P50402) | inactive: 0 |
| EIF3B (UniProt P55884) | inactive: 0 |
| DNAJC3 (UniProt Q13217) | inactive: 0 |
| DIAPH2 (UniProt O60879) | inactive: 0 |
| EIF2C3 (UniProt Q9H9G7) | inactive: 0 |
| EIF4E (UniProt P06730) | inactive: 0 |
| EFTUD1 (UniProt Q7Z2Z2) | inactive: 0 |
| DPH5 (UniProt Q9H2P9) | active: 1 |
| DSN1 (UniProt Q9H410) | inactive: 0 |
| DPYD (UniProt Q12882) | inactive: 0 |
| EIF3A (UniProt Q14152) | inactive: 0 |
| DOK3 (UniProt Q7L591) | inactive: 0 |
| DNAJC17 (UniProt Q9NVM6) | inactive: 0 |
| DKFZP686O24166 | inactive: 0 |
| DNAJC19 (UniProt Q96DA6) | inactive: 0 |
| DUSP23 (UniProt Q9BVJ7) | inactive: 0 |
| ELF1 (UniProt P32519) | inactive: 0 |
| DLG1 (UniProt Q12959) | inactive: 0 |
| DMXL2 (UniProt Q8TDJ6) | inactive: 0 |
